In paper PMC11187125:
No constants are given. Whether binding was seen depends on the method and setting. For some assays here: A result given as binding can be weak or reduced; the word gives no strength. Tags and fused reporters may be left off the sequences shown. Blank lines part the entries; values can stand above or below the molecule they belong to.

Amino acid sequences for entries named in this document (tags omitted). A change or cut given only in a name is not applied to a line headed by its entry.
UniProt F4JKL1: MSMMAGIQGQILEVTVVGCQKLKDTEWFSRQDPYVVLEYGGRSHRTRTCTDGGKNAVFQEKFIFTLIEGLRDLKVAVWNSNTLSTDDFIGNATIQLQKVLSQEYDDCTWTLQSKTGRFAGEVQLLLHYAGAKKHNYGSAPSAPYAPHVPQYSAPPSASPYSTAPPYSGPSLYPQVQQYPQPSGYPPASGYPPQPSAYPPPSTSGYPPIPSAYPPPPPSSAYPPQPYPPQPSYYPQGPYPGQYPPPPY

How the values were obtained:
[1] = molecular target: T1, GST-ALIX (Arabidopsis) (UniProt F4HXZ1); test: pull-down; glutathione agarose loaded with GST-ALIX, incubated with 75 pmol of His-tagged proteins for 2 h at 4 °C in buffer A (50 mM Tris, 150 mM NaCl, 10% glycerol, 0.1% Triton X-100, pH 7.5); eluted with 50 mM glutathione; anti-GST and anti-His immunoblots; both purified
T1 sequence: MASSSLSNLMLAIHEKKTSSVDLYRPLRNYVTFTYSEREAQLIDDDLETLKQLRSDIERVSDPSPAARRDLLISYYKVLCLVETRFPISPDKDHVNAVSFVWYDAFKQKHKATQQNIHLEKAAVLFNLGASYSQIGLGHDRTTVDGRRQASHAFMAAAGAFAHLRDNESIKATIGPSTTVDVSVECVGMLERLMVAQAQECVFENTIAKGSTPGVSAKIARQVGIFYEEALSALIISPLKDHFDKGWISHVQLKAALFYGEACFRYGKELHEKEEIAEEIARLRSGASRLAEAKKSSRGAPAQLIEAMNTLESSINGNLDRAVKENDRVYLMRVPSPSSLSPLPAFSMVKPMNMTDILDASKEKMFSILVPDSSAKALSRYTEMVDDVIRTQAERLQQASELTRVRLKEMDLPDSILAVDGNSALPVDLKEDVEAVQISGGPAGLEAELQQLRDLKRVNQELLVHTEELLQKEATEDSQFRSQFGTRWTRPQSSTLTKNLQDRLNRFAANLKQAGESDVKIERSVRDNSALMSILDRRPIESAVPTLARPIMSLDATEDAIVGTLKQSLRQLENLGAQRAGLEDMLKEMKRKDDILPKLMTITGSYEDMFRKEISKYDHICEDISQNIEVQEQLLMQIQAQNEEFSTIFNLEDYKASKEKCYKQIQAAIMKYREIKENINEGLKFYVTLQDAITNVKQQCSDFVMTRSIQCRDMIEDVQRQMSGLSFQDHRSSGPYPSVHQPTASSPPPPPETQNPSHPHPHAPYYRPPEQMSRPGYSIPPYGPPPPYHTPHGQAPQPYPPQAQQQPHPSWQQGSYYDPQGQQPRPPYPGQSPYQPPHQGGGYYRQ

[2] = molecular target: T2, 6xHis-T7tag-ATG8f (Arabidopsis) (UniProt Q8VYK7); test: pull-down; TALON beads loaded with 6xHis-ATG8s, incubated with 100 pmol of CaLB1-GST at 4 °C for 1 h in Talon Buffer (50 mM Na2HPO4, 300 mM NaCl, 10% glycerol, pH 7.0); eluted with 150 mM imidazole; anti-GST immunoblot; both purified
T2 sequence: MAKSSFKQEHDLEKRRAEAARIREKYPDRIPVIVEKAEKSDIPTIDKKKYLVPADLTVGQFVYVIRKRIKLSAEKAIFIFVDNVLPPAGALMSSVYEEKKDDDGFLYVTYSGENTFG

[3] = molecular target: T3, 6xHis-T7tag-ATG8a (Arabidopsis) (UniProt Q8LEM4); test: as above
T3 sequence: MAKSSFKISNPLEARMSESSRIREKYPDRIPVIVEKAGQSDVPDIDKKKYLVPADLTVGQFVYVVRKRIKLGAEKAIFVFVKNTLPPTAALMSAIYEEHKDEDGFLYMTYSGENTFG

[4] = molecular target: T4, 6xHis-T7tag-ATG8i (Arabidopsis) (UniProt Q9LRP7); test: as above
T4 sequence: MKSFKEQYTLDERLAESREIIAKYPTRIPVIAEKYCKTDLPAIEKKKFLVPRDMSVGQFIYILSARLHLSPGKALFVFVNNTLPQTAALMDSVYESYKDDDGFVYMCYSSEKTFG

[5] = molecular target: T5, GBD-Myc-ATG8i (Arabidopsis) (UniProt Q9LRP7); test: two-hybrid; yeast strain Y8800; GAD-fused CaLB1 variants with GBD-ATG8i; growth on medium lacking leucine, tryptophan and histidine with or without 1 mM 3-AT
T5 sequence: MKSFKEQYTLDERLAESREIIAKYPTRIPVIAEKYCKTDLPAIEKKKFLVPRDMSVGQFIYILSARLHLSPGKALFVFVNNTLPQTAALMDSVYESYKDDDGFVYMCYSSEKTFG

[6] = molecular target: CaLB1-6xHis (Arabidopsis) (UniProt F4JKL1); test: pull-down; TALON beads loaded with CaLB1-6xHis, incubated with 20 pmol of MBP-fused proteins in buffer A' (50 mM Tris, 100 mM NaCl, 10% glycerol, 0.1% Triton X-100, pH 7.5), 4 °C; eluted with 400 mM imidazole; anti-MBP and anti-His immunoblots; both purified

Molecule: CaLB1-6xHis (from UniProt F4JKL1)
binding [1]: binds

Molecule: CaLB1-GST (from UniProt F4JKL1)
binding [2]: binds
binding [3]: binds
binding [4]: binds

Molecule: GAD-HA-CaLB1(FL) (Arabidopsis)
binding [5]: binds

B1: MBP-ALIX (BRO1) (domain or fragment, UniProt F4HXZ1 5-403)
chain: SLSNLMLAIHEKKTSSVDLYRPLRNYVTFTYSEREAQLIDDDLETLKQLRSDIERVSDPSPAARRDLLISYYKVLCLVETRFPISPDKDHVNAVSFVWYDAFKQKHKATQQNIHLEKAAVLFNLGASYSQIGLGHDRTTVDGRRQASHAFMAAAGAFAHLRDNESIKATIGPSTTVDVSVECVGMLERLMVAQAQECVFENTIAKGSTPGVSAKIARQVGIFYEEALSALIISPLKDHFDKGWISHVQLKAALFYGEACFRYGKELHEKEEIAEEIARLRSGASRLAEAKKSSRGAPAQLIEAMNTLESSINGNLDRAVKENDRVYLMRVPSPSSLSPLPAFSMVKPMNMTDILDASKEKMFSILVPDSSAKALSRYTEMVDDVIRTQAERLQQASELT
binding [6]: no binding (tested: 20 pmol)

Other lines, results leading:

binding [5]: binds
Molecule: GAD-HA-CaLB1[Y172A] (Arabidopsis)

binding [5]: binds
Molecule: GAD-HA-CaLB1[Y205A] (Arabidopsis)
